From paper PMC10539329, “NLRP6 potentiates PI3K/AKT signalling by promoting autophagic degradation of p85α to drive tumorigenesis” (Nature Communications, 2023)
These are yes or no findings as the source states them, for the method shown. In cells and extracts the contact can be indirect. These calls come from enrichment with a bait or labelling near it, and not all partners need be listed. Sequences can lack the tags named with a protein.

Amino acid sequences for entries named in this document (tags omitted).
UniProt P27986: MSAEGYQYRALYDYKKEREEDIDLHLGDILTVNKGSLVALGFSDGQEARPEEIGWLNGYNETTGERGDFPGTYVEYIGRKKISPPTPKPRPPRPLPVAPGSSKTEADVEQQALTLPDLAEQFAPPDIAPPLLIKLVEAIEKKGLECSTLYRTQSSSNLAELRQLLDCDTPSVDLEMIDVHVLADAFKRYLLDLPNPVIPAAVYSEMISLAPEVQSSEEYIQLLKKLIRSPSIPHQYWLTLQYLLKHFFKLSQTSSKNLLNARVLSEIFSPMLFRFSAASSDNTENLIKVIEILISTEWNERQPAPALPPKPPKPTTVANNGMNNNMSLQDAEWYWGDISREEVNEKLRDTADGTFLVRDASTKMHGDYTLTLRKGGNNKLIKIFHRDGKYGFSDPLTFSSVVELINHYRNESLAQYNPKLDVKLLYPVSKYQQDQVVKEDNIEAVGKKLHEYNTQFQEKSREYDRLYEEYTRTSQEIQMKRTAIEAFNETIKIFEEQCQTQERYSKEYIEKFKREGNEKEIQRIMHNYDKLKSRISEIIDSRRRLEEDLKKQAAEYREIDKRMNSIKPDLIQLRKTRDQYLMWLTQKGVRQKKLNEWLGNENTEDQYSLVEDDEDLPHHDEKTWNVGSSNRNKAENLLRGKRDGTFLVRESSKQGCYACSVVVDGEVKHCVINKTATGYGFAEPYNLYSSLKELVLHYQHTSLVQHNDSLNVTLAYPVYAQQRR

Target: T1, NLRP6-APEX2 fusion protein (human) (UniProt P59044)
T1 sequence: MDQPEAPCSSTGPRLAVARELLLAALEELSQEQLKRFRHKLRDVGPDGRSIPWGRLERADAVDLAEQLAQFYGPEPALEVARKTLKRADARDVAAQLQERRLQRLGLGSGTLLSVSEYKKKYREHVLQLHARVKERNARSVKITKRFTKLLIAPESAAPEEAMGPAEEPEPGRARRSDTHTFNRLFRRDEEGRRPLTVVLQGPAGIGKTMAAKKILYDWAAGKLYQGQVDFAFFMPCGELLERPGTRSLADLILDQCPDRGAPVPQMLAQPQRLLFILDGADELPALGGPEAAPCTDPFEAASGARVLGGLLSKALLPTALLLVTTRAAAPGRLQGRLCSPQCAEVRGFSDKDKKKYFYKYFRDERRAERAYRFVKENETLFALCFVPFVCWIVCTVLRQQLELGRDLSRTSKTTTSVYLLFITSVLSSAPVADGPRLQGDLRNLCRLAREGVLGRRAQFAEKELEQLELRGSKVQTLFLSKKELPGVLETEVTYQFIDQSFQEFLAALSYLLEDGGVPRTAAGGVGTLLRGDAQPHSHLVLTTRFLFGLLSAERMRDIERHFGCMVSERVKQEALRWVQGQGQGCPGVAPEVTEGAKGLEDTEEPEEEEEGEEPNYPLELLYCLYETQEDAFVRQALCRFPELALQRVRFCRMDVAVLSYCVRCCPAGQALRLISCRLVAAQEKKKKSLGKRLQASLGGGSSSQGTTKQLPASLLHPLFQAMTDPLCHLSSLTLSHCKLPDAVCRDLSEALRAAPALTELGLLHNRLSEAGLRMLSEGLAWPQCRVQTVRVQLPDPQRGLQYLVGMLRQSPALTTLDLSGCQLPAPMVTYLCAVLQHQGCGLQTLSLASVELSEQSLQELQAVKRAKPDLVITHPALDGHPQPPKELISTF
Experiment: proximity labelling; NLRP6-APEX2 in living cells, biotin phenol 30 min, 2 mM hydrogen peroxide 1 min, streptavidin beads, LC-MS/MS

- binding: binds
Substance: endogenous p85α (from UniProt P27986 1-724)
